Screening data, single-dose tests

Protein sequences, listed by entry. Tags and fused reporters are not part of them. Residues count along the entry.
UniProt I6X8D2, whole entry: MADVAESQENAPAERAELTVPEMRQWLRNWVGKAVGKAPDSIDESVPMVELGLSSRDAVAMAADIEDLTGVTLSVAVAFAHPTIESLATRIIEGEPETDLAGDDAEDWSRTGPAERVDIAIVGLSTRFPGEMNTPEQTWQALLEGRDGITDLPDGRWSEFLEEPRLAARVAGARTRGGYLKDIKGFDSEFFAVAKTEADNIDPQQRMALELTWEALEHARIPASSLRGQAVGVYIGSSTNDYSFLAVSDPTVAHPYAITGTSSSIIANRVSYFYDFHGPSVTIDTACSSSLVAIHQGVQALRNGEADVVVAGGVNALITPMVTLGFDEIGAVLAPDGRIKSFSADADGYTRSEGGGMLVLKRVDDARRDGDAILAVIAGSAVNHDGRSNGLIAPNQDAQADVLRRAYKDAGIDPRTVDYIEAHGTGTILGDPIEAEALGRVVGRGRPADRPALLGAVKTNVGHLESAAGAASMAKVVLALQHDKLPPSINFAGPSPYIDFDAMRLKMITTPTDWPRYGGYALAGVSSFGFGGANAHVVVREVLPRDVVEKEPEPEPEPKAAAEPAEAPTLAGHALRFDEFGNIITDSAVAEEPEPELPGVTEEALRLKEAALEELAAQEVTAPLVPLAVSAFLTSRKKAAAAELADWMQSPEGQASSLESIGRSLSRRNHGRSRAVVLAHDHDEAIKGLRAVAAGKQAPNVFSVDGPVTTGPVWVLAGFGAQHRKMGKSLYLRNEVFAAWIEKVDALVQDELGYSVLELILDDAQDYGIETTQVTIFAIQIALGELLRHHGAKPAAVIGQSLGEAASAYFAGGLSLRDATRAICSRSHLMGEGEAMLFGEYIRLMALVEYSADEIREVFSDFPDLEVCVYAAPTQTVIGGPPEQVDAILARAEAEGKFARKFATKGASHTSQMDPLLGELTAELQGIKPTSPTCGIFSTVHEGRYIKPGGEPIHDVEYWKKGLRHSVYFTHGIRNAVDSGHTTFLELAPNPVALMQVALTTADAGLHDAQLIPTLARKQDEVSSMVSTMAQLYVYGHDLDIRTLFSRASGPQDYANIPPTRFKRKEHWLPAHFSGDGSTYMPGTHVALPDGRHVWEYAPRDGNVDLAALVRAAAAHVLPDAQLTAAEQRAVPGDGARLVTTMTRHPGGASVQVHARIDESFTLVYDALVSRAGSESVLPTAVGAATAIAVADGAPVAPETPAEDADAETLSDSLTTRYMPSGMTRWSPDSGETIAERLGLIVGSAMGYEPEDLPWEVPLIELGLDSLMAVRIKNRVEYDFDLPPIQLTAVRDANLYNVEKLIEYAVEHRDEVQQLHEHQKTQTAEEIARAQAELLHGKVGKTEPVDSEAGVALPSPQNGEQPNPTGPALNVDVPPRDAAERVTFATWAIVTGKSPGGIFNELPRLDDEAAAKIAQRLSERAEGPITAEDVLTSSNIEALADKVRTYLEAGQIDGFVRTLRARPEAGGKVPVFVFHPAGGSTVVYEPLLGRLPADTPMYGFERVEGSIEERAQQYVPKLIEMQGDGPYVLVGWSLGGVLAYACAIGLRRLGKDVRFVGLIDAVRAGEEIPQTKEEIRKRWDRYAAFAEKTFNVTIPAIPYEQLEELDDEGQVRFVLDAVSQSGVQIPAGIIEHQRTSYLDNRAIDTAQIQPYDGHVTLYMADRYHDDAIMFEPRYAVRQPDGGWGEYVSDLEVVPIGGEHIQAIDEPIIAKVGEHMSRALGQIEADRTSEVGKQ
UniProt A4I591, 1-473: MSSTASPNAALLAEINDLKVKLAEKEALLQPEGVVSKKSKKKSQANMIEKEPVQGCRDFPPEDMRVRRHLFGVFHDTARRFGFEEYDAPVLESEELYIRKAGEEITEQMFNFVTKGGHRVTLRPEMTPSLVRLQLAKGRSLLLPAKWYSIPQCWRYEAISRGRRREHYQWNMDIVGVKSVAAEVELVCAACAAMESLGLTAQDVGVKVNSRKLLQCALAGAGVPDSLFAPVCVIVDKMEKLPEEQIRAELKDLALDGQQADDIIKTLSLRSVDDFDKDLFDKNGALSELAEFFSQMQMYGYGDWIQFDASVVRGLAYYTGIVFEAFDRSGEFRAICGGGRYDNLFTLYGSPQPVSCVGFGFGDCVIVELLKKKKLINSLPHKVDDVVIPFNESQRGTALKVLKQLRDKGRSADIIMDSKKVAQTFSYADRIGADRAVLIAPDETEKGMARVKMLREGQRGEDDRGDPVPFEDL

The values are deposited in ChEMBL (CHEMBL3988442, “University of Dundee, Small-Polar-MMV Screening Library” (2021)).

Pks13 thioesterase: 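Enzyme assay of the thioesterase domain of polyketide synthase 13; the read-out is not stated. Target: Polyketide synthase Pks13, Mycobacterium tuberculosis (UniProt I6X8D2). Tested at 30 µM. The record gives no direction; the compounds picked for IC50 retests had high values, so higher reads as stronger inhibition. Size under these conditions: about 67,000 compounds, about 300 of them at 50% or above in at least one test.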
LiHisRS: 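Enzyme assay of histidyl-tRNA synthetase; the read-out is not stated. Target: Histidine-tRNA ligase, Leishmania infantum (UniProt A4I591). Concentration: 30 µM. Direction is inferred from retests: higher values go with stronger inhibition. The assay is labelled LdHisRS but filed under L. infantum. Of about 69,000 compounds tested this way, about 410 (0.6%) reached 50% or more in at least one test.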

Results are given as percent effect.
The record does not define 0% and 100%; most values in the screen are far below 50% and negative numbers occur (in some assays of this library far below -100).
Compounds were drawn at random from those tested, without regard to their results.

- CCC1=N[C@@]2(CC[C@@H]3CN(C(=O)NCC(C)C)C[C@@H]32)C(=O)N1CC(C)C : Pks13 thioesterase: -15.04%; LiHisRS: 18.87%
- Cc1cnn(CC2CN(CCCS(C)(=O)=O)CCO2)c1 (centres unmarked) : Pks13 thioesterase: -23.63%; LiHisRS: 12.12%
- CC(C)Oc1cc(N2CCC3(CC2)[C@H](O)C[C@@H]3O)nc(N)n1 : Pks13 thioesterase: -26.78%; LiHisRS: -3.03%
- Fc1ccc(-c2nnc(CN3CCCC(Cn4cncn4)C3)o2)cc1 (centres unmarked) : Pks13 thioesterase: -5.375%; LiHisRS: 9.615%
- O=S(=O)(c1cc(F)ccc1F)N1CCCC1c1ccco1 (centres unmarked) : Pks13 thioesterase: -25.25%; LiHisRS: 9.574%
- CC(C)c1cc(C(=O)N(C)Cc2cccc3ncccc23)n(C)n1 : Pks13 thioesterase: -0.3731%; LiHisRS: 8.571%
- Cc1cc(CNC(=O)CCc2c(C)nc3cc(O)nn3c2C)no1 : Pks13 thioesterase: -4.627%; LiHisRS: 19.13%
- CCC(C)NC(=O)c1ccc(NC(=O)CCc2ccncc2)c(C)c1 (centres unmarked) : Pks13 thioesterase: -17.62%; LiHisRS: 15.05%
- O=C(O)c1ccnc(-c2ccnc(NCCc3nc4c(s3)CCC4)n2)c1 : Pks13 thioesterase: -14.33%; LiHisRS: 5.376%
- Cc1nccc(NCc2cncc3c2CCN(CC2CCOC2)C3)n1 (centres unmarked) : Pks13 thioesterase: -1.078%; LiHisRS: 13.64%
- Cc1cnn(CC(C)NCc2nc(-c3cccnc3)no2)c1 (centres unmarked) : Pks13 thioesterase: -8.593%; LiHisRS: 14.42%
- Cn1cccc1C(=O)N1CCC2(CC1)CN(S(C)(=O)=O)c1ccccc12 : Pks13 thioesterase: -6.075%; LiHisRS: 15.38%
- COc1ccc(F)c(CN2CCCC3(CCN(C(=O)CSC)C3)C2)c1 (centres unmarked) : Pks13 thioesterase: -23.86%; LiHisRS: 9.589%
- O=C(COCC(=O)N(c1ccccc1)c1ccccc1)N1CCOCC1 : Pks13 thioesterase: -5.613%; LiHisRS: 17.24%
- CCc1nc(C2CCCN2Cc2nnc(CC)o2)no1 (centres unmarked) : Pks13 thioesterase: -19.53%; LiHisRS: 6.612%
- CCc1ccc(CN2CCC(CNC(=O)c3ccc(C)nc3)C2)nc1 (centres unmarked) : Pks13 thioesterase: -5.193%; LiHisRS: 2.4%
- Cc1c(C(=O)N2CCC3(CCCNC3=O)C2)sc2nc[nH]c(=O)c12 (centres unmarked) : Pks13 thioesterase: -14.44%; LiHisRS: 5%
- Cc1ncsc1-c1nnc(C2CCN(Cc3cccc(F)c3F)CC2)o1 : Pks13 thioesterase: -40.47%; LiHisRS: -4.348%
- Cc1cccc2nc(CN3CCC(N4CCN(C)C4=O)CC3)cn12 : Pks13 thioesterase: -8.544%; LiHisRS: 19.47%
- COc1cccc(Cn2ncnc2COC(C)C)c1 : Pks13 thioesterase: -11.72%; LiHisRS: 8.197%
- COCc1noc(-c2ccc(N3CCCC3c3ccc(F)cc3)nc2)n1 (centres unmarked) : Pks13 thioesterase: -17.83%; LiHisRS: 8.333%
- CC(=O)N1CCN(Cc2ccsc2)CC2(CC(=O)N(C)C2)C1 (centres unmarked) : Pks13 thioesterase: -13.54%; LiHisRS: 15.6%
- CC(=O)N[C@@H](CC(C)C)C(=O)N1CCC(n2cc(CC(C)C)nn2)CC1 : Pks13 thioesterase: -20.93%; LiHisRS: 5.333%
- O=C(NCc1ccc(-n2cncn2)nc1)c1ccc2c(c1)CCO2 : Pks13 thioesterase: 27.59%; LiHisRS: 30.95%
- COCCOC1CCN(C(C(=O)O)c2ccc(F)c(Cl)c2)CC1 (centres unmarked) : Pks13 thioesterase: -13.49%; LiHisRS: -6.993%
- Cc1ccc(-n2nnc(C(=O)NC(C)C)c2C2CC2)cc1 : Pks13 thioesterase: -15.4%; LiHisRS: -0.8929%
- O=C(Cc1ccccc1)NC[C@H]1Cn2ccnc2CO1 : Pks13 thioesterase: -1.542%; LiHisRS: 4.054%
- CS(=O)(=O)NCC1CCCCN1C(=O)c1csc(-c2ccsc2)n1 (centres unmarked) : Pks13 thioesterase: -16.92%; LiHisRS: 21.92%
- COc1ccc(C2CCCCCN2S(=O)(=O)N(C)C)cc1 (centres unmarked) : Pks13 thioesterase: -24.62%; LiHisRS: 16.35%
- Cc1nn(CC(C)C)c(N(C)C)c1CNCCC(=O)NC(C)C : Pks13 thioesterase: -5.731%; LiHisRS: 0%
- CCc1n[nH]c(C2CN(Cc3nc(C4CC4)no3)CCO2)n1 (centres unmarked) : Pks13 thioesterase: -10.84%; LiHisRS: -3.306%
- COc1cc(Cl)c(CN2CCC(C(N)=O)C2)cc1Cl (centres unmarked) : Pks13 thioesterase: -15.24%; LiHisRS: 14.61%
- c1cnnc(N2CCCC(NCc3ccc(-n4ccnc4)cc3)C2)c1 (centres unmarked) : Pks13 thioesterase: -15.64%; LiHisRS: 0%
- Cc1ccc2c(n1)N(CC1CC1)CCN(C(=O)NC1CC1)C2 : Pks13 thioesterase: -32.79%; LiHisRS: 8.571%
- Cn1cc(CN2CCOCC3(C2)CN(c2ccccc2)C(=O)CO3)cn1 (centres unmarked) : Pks13 thioesterase: -2%; LiHisRS: 13.73%
- O=C(CCc1cccs1)NCC1CCCN1c1cccnn1 (centres unmarked) : Pks13 thioesterase: -36.44%; LiHisRS: 21.88%
- c1ccc(C2CCCN2C2CSCCSC2)nc1 (centres unmarked) : Pks13 thioesterase: -31.83%; LiHisRS: 31.43%
- O=C(NCCN1CCCC(CO)C1)c1ccc2scnc2c1 (centres unmarked) : Pks13 thioesterase: -13.46%; LiHisRS: 13.13%
- CC1CCN(Cc2ccccc2CNC(=O)C2CNC(=O)N2)CC1 (centres unmarked) : Pks13 thioesterase: -23.09%; LiHisRS: 5.181%
- Cc1cn2c(n1)CCC(NC(=O)c1ccc(CS(C)(=O)=O)cc1)C2 (centres unmarked) : Pks13 thioesterase: -11.69%; LiHisRS: 26.4%
- CN(Cc1ccco1)Cc1ccccc1CNC(=O)c1csnn1 : Pks13 thioesterase: -32.93%; LiHisRS: 36.99%
- CCn1c(C)nnc1SCCNc1nc(C)ncc1S(C)(=O)=O : Pks13 thioesterase: -3.247%; LiHisRS: 10.83%
- CN(C)c1cc(C(=O)N2CCCCC2)ccn1 : Pks13 thioesterase: -14.55%; LiHisRS: 8.333%

Some entries from above, unchanged:

structure	Pks13 thioesterase	LiHisRS
CC(=O)N[C@@H](CC(C)C)C(=O)N1CCC(n2cc(CC(C)C)nn2)CC1	-20.93	5.333
COc1ccc(F)c(CN2CCCC3(CCN(C(=O)CSC)C3)C2)c1 (centres unmarked)	-23.86	9.589
CC(C)c1cc(C(=O)N(C)Cc2cccc3ncccc23)n(C)n1	-0.3731	8.571
CN(Cc1ccco1)Cc1ccccc1CNC(=O)c1csnn1	-32.93	36.99
O=C(Cc1ccccc1)NC[C@H]1Cn2ccnc2CO1	-1.542	4.054